The numbers were not newly measured in patent publication US20020016293A1 (priority 2000, published 2002), which cites them from elsewhere.

The conditions of the data set: cited from earlier work.

For `COC(=O)C1=C(C)NC(C)=C(C(=O)OC)C1c1ccccc1[N+](=O)[O-]` [Nifedipine, 3,5-Pyridinecarboxylic acid, 1,4-dihydro-2,6-dimethyl-4-(2-nitrophenyl)-, dimethyl ester], for the setting “human, in vivo”, the “bound to plasma protein” value was “Greater than 90%”, the “inactive metabolites excreted in the stool” value is given as 15% and the “inactive metabolites excreted in urine” value was 80%. Moreover, the “fraction of an oral dose absorbed” value (oral) is reported as “About 90%”.
